Consider 53 compounds from PubChem BioAssay AID1487 (National Center for Advancing Translational Sciences (NCATS), 2009).

Several values for one entry are separate records, joined by “and”; a condition that tells them apart may be missing. Equal values may be shown once. Some of the results follow. Shown are side measurements of this screen, not its main read-out; they come without a call. The list favours compounds with an active or inconclusive main result. Words in brackets tell the shape of the fitted curve; partial curves, single points and poor fits give uncertain potencies.

A short description of the experiment: qHTS Assay for Modulators of Lamin A Splicing. The note with it: HeLa LMNA splicing GFP/RFP minigene ratio, 48 h. In outline:
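S3 HeLa stable clones carrying a lamin A-EGFP splicing minigene plus DsRed2 were seeded at 600 cells/well in Opti-MEM with 2% FBS, pin-dosed and incubated 48 h at 37°C. Acumen cytometry (488 nm) gave the GFP/RFP total-intensity ratio.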

[1] abbreviates: measured here: RFP viability control channel.
[2] abbreviates: measured here: GFP splicing reporter channel.

For the compound `Cc1cc(C)c2c(CN3CCN(C/C=C/c4ccccc4)CC3)cc(=O)oc2c1`, the AC50 – broadly, the midpoint of the concentration-response curve, whichever way the signal moves – under setting [1] was 14.1 µM [rising, partial curve, poor fit]. With `O=C(NCc1ccc(N2CCCC2=O)cc1)Nc1cccc(Cl)c1`, the AC50 runs as follows: under setting [2], 12.6 µM [rising, partial curve, poor fit]; under setting [1], 15.8 µM [rising, partial curve]. Consider `CN(C)CCN1C(=O)c2ccccc2N(C)c2ccccc21`, for which the concentration at half-maximal activity (AC50) reads like this: under setting [2], 35.5 µM [falling, single point]; under setting [1], 35.5 µM [falling, single point].

Regarding `CCCN1CCN(c2ncnc3scc(C4COc5ccccc5O4)c23)CC1` (stereo not drawn), under setting [1], the AC50 is 0.1 µM [rising, full curve, poor fit]. Regarding `CCOC(=O)C1CCC(CN(Cc2c(Cl)cccc2Cl)S(=O)(=O)c2ccc(F)cc2)CC1` (stereo not drawn), the AC50 under setting [2] is 0.794 µM [falling, full curve]. Regarding `CN(C)S(=O)(=O)c1ccc(N2CCCC2)c(C(=O)Nc2nc(-c3cc(F)ccc3F)cs2)c1`, the AC50 reads like this: under setting [2], 0.126 µM [rising, full curve, poor fit]; under setting [1], 0.251 µM [rising, full curve].

For the compound `Cc1ccc(NC(=O)CSc2nc3c(c(=O)[nH]2)CCC3)cc1C`, the AC50 by setting is: under setting [2], 6.31 µM [rising, partial curve, poor fit]; under setting [1], 22.4 µM [rising, single point]. For the compound `CCCN(CCC)c1nc(N)nc(-c2cc(Cl)ccc2OC)n1`, under setting [1], the AC50 was 17.8 µM [rising, single point]. Still for that read-out and setting: as for `COC(=O)C(Cc1ccccc1)NC(=S)NC(=O)c1ccccc1` (stereo not drawn), the figure is 5.62 µM [rising, partial curve, poor fit].

Take `COc1ccc(Cn2c(O)c(C=Nc3ccc(O)cc3)c3ccccc3c2=O)cc1`: the AC50 reads like this: under setting [2], 7.08 µM [rising, partial curve, poor fit]; under setting [1], 12.6 µM [rising, partial curve]. `O=C(COc1cccnc1[N+](=O)[O-])N1CCN(S(=O)(=O)c2ccc3ccccc3c2)CC1`: the AC50 under setting [1] is 35.5 µM [rising, single point]. Take `Cc1ccc(NC(=S)NCc2ccccc2Cl)c(C)c1`: the AC50 by setting is: under setting [2], 31.6 µM [rising, single point]; under setting [1], 35.5 µM [rising, single point]. As to `Cc1ccc(S(=O)(=O)CCC(=O)N2CCN(c3nc4c(C)c(Cl)ccc4s3)CC2)cc1`, under setting [2], the AC50 was 6.31 µM [falling, full curve, poor fit]. On to `COc1ccc(OC)c(NC(=O)COC(=O)c2c3c(nc4ccccc24)CCCC3)c1`, for which the AC50 under setting [2] is 17.8 µM [falling, single point]. As to `COc1ccc(NC(=O)c2cccc(S(=O)(=O)N(C)c3ccccc3)c2)cn1`, the AC50 runs as follows: under setting [2], 17.8 µM [rising, single point]; under setting [1], 20 µM [rising, partial curve]. For `COC(=O)Nc1nc2ccc(C(=O)c3cccs3)cc2[nH]1`, the AC50 under setting [2] is 50.1 nM [falling, full curve] and 282 nM [falling, full curve]; the AC50 under setting [1] was 79.4 nM [falling, full curve] and 282 nM [falling, full curve]. Take `CCC(CC)NC(=O)CC(c1ccccc1)c1ccccc1`: the AC50 was 15.8 µM [falling, single point] under setting [2] and 1.12 µM [falling, partial curve, poor fit] under setting [1]. With `c1ccc2c(-c3nc(-c4ccncc4)no3)cccc2c1`, the AC50 under setting [1] was 0.282 µM [rising, full curve, poor fit]. Consider `CS(=O)(=O)N(CC(=O)N1CCN(c2ccccc2F)CC1)c1cccc(C(F)(F)F)c1`, for which the AC50 under setting [1] is 11.2 µM [rising, partial curve]. For `O=C(NCCc1ccc(Cl)cc1)c1ccc(CS(=O)(=O)Cc2ccccc2F)o1`, under setting [2], the AC50 was 7.94 µM [falling, partial curve, poor fit].

Regarding `CSc1ccc(CNC(=O)c2cc3c(=O)n(Cc4ccco4)ccc3nc2C)cc1`, the AC50 under setting [1] was 11.2 µM [rising, partial curve]. As for `O=S(=O)(O)c1nc2ccccc2n1Cc1ccc(Cl)cc1Cl`, the AC50 under setting [1] was 20 µM [rising, single point]. Same read-out and setting: as for `Cc1sc(N/N=C/c2cccs2)nc1-c1ccccc1`, the figure is 10 µM [rising, partial curve]. Consider `COc1ccc(Cn2ccc3nc(C)c(C(=O)Nc4ccc(C)c(F)c4)cc3c2=O)cc1`, for which the AC50 is, setting by setting: under setting [2], 4.47 µM [rising, full curve, poor fit]; under setting [1], 3.98 µM [rising, single point].

With `CC(C)(O/N=C(\C(=O)N[C@@H]1C(=O)N2C(C(=O)[O-])=C(C[n+]3ccccc3)CS[C@@H]12)c1csc(N)n1)C(=O)O`, the AC50 under setting [2] was 0.000316 µM [falling, full curve, poor fit] and the AC50 under setting [1] was 0.00501 µM [rising, full curve, poor fit]. Consider `CC(C)N(C(=O)CSc1nc2ccccc2n1Cc1ccccc1F)C(C)C`, for which the AC50 by setting is: under setting [2], 35.5 µM [rising, single point]; under setting [1], 35.5 µM [rising, single point].

Turning to `O=C(Nc1ccc(C(F)(F)F)cc1)c1cc(S(=O)(=O)NCC2COc3ccccc3O2)ccc1F` (stereo not drawn), the half-maximal activity concentration (AC50) under setting [2] is 35.5 µM [falling, single point]. `COc1ccc(N2CCN(C(=O)c3nc(-c4ccc(Cl)cc4)n4c3CCCCC4)CC2)cc1`: the AC50 is, setting by setting: under setting [2], 39.8 µM [rising, partial curve, poor fit]; under setting [1], 35.5 µM [rising, single point]. On to `CN1CCN(CCCN2c3ccccc3Sc3ccc(C(F)(F)F)cc32)CC1`, for which the AC50 under setting [1] was 14.1 µM [falling, partial curve] [middle of 4 runs]. For the compound `COc1ccc(CCNC(=O)C2CC(c3ccc([N+](=O)[O-])cc3)=NO2)cc1` (stereo not drawn), the AC50 under setting [1] was 35.5 µM [rising, single point].

`CC(C)c1cccc(C(C)C)c1NC(=O)c1ccccc1`: the AC50 under setting [1] was 6.31 µM [rising, single point]. As to `O=C(O)c1sc2cc(C(F)(F)F)cnc2c1-c1ccccn1`, the AC50 under setting [2] was 1.26 µM [rising, full curve, poor fit].

With `CCOC(=O)c1ccc(NS(=O)(=O)c2ccc3c(c2)CCCN3C(C)=O)cc1`, the AC50 was 11.2 µM [rising, partial curve] under setting [2] and 12.6 µM [rising, single point] under setting [1]. As to `CCCOC(=O)c1cccc(Nc2nc(-c3cccnc3)nc3ccccc23)c1`, under setting [1], the AC50 was 20 µM [rising, partial curve, poor fit].

In the case of `Cc1cccc(-n2c(C)cc(/C=N/NC(=O)c3ccc(CN4CCOCC4)cc3)c2C)c1`, under setting [1], the AC50 is 17.8 µM [rising, partial curve]. Turning to `O=S(=O)(NCc1cn2ccsc2n1)c1ccc2c(c1)OCCO2`, under setting [1], the AC50 is 2 µM [rising, full curve, poor fit].

For the compound `Cc1ccc(-n2c(SCC(=O)Nc3cccc(Cl)c3)nc3n[nH]c(C)c3c2=N)cc1`, the AC50 reads like this: under setting [2], 12.6 µM [falling, single point]; under setting [1], 15.8 µM [falling, single point]. On to `CCn1c(C)c(C(C)=O)c(NCc2ccccc2)nc1=S`, for which the AC50 under setting [2] was 14.1 µM [rising, partial curve, poor fit] and the concentration at half-maximal activity (AC50) under setting [1] was 22.4 µM [rising, single point]. For the compound `CC(=O)N(CN1C(=O)c2ccccc2C1=O)c1cccc(C)c1`, the concentration at half-maximal activity (AC50) under setting [2] is 1.26 µM [rising, full curve, poor fit]. For `O=C1c2ccccc2NC(c2ccccc2)N1Cc1ccco1` (stereo not drawn), the AC50 is, setting by setting: under setting [2], 0.794 µM [rising, full curve, poor fit]; under setting [1], 11.2 µM [rising, single point]. `O=C(COc1ccc(Cl)cc1)N1CCN(c2cccc(C(F)(F)F)c2)CC1`: under setting [1], the AC50 was 11.2 µM [rising, partial curve, poor fit]. Consider `COc1cccc(C2C(C(N)=O)=C(C)Nc3nc(-c4ccccc4Cl)nn32)c1` (stereo not drawn), for which, under setting [1], the AC50 is 15.8 µM [rising, single point]. Regarding `COc1ccc(C2C(=O)N(C3CCCCC3)CC(=O)N2Cc2ccc3c(c2)OCO3)cc1` (stereo not drawn), the AC50 under setting [1] was 11.2 µM [rising, single point]. Still for that read-out and setting: as for `NC(=O)C1(N2CCCCC2)CCN(C(=S)Nc2ccc(F)cc2)CC1`, the figure is 14.1 µM [rising, single point]. For the compound `CCOc1ccc(CCNC(=O)COC(=O)c2cc(OC)c(OC)c(OC)c2)cc1OCC`, the AC50 under setting [2] is 0.0355 µM [falling, full curve, poor fit].

As to `COc1cccc(C(=O)NCC(=O)N2CCC(C)CC2)c1`, the AC50 under setting [1] is 1.41 µM [falling, partial curve]. The same measure, in the same setting: as for `CC1(C)OC(=O)C(=C2CCCN2)C(=O)O1`, the figure is 12.6 µM [falling, partial curve, poor fit]. Turning to `Cc1cc(S(=O)(=O)Nc2ccc3c(c2)n(C)c(=O)n3C)ccc1F`, the AC50 under setting [2] is 0.891 µM [falling, partial curve]. For the compound `Cc1ccc(OCc2ccc(-c3nc(C#N)c(N4CCC(C)CC4)o3)o2)cc1`, the AC50 under setting [2] is 0.0126 µM [rising, full curve, poor fit]. Regarding `COc1ccc(-c2nc(SCc3ccccc3)n(S(C)(=O)=O)n2)cc1`, the AC50 runs as follows: under setting [2], 15.8 µM [rising, single point]; under setting [1], 17.8 µM [rising, single point]. Take `CCCCOc1ccc(C(=O)Nc2cc(C)c(OCC(=O)N3CCOCC3)c(C)c2)cc1`: the AC50 is, setting by setting: under setting [2], 35.5 µM [rising, single point]; under setting [1], 35.5 µM [rising, single point]. On to `c1ccc(N2CCN(Cc3ccnc4ccccc34)CC2)cc1`, for which the AC50 under setting [1] is 15.8 µM [rising, single point].

`Cc1nc2ccccc2n1CCCOc1ccccc1`: the AC50 under setting [2] was 10 µM [rising, partial curve] and the AC50 under setting [1] is 12.6 µM [rising, partial curve].
